# According to the supplement of paper PMC12889115:
# Some of the results follow. Values are raw readings; no control value is given beside them.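 Primary screen: polymyxin B was added at a level permeabilizing Salmonella outer membranes while sparing inner membranes. DMSO wells, both with and without polymyxin B, established maximum growth. Plate-to-plate variation meant each plate was ranked on its own, and the lowest-OD600 compounds were selected as hits.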
# Tested on: Salmonella enterica serovar Typhimurium SL1344
# Experiment: bacterial growth OD600 after 18 h with compound and polymyxin B; higher = more bacterial growth (less inhibition)
# Conditions: 50 µM, Mueller-Hinton broth
SMILES,bacterial growth OD600 (polymyxin B 0.75 µg/mL),bacterial growth OD600 (polymyxin B 1 µg/mL)
CC(=O)c1ccc(C(=O)N2CCCC(CCc3ccccc3)C2)s1 (stereo unspecified),0.183,
O=C(CCC1CCN(Cc2ccc(CO)o2)CC1)Nc1ccccc1Cl,,0.814
CC(=O)N1CCCC(C(=O)Nc2cccc(-c3cc4ccccc4[nH]3)c2)C1 (stereo unspecified),0.971,
O=C(CCN1CCCCO1)N1CCCC(CCc2ccc(F)c(F)c2)C1 (stereo unspecified),0.007,
COc1ccc(CNC(=O)c2ccc(OC)c(OC3CCN(C(C)C)CC3)c2)cc1OC,,1.16
COCCOC1CCN(Cc2nc(-c3cccc(Cl)c3)no2)CC1,,0.968
CC(=O)N1CCC(C(=O)N2CCCC(C(=O)c3ccc(C(F)(F)F)cc3)C2)CC1 (stereo unspecified),,0.769
CCOC(=O)C1(CC2CC2)CCN(Cc2c[nH]nc2-c2cccc(F)c2)CC1,,0.792
CCCCc1nc2cc(C(=O)N3CCC(O)CC3)ccc2o1,,0.862
COC(=O)CCCNC(=O)c1ccc2nc(-c3cccc(OC)c3)oc2c1,,0.863
Cc1ncc(CNCc2cccnc2Oc2ccc(F)c(F)c2)cn1,0.839,
COc1ccccc1/C=C/CN1CCNC(=O)C1CC(=O)N1CCCC1 (stereo unspecified),,0.997
O=C1N(CCC2CCCCC2)CCCC1(O)CN1CCCC1 (stereo unspecified),0.857,
COc1ccc(CN2C(=O)O[C@@H]3CN(C4CCCCC4)C[C@@H]32)cc1OC,,1.11
CN(Cc1ccccc1)c1ncccc1CNC(=O)CN1CCCC1=O,,1
CN(Cc1cnccn1)C(=O)c1csc2nc(-c3ccccc3Cl)cn12,,1.15
CN(C)S(=O)(=O)NC1CC(=O)N(CCc2cccc(Cl)c2)C1 (stereo unspecified),,0.916
COc1cc(CN([C@H]2CCCCNC2=O)S(=O)(=O)c2cccc(Cl)c2)cc(OC)c1OCCc1ccsc1,0.011,
COc1cccc(OC)c1CN1CCCC(CO)(Cc2cccc(Cl)c2)C1 (stereo unspecified),,0.871
CCn1ccnc1CN(C)Cc1cn(Cc2ccccc2)nc1-c1ccc2c(c1)OCO2,,0.544
O=C(NC1CCCC1)C1CCCN(C2CCN(c3nc4ccccc4o3)CC2)C1 (stereo unspecified),0.947,

# Fetched one by one from the entries so far (2):
SMILES,bacterial growth OD600 (polymyxin B 0.75 µg/mL),bacterial growth OD600 (polymyxin B 1 µg/mL)
CCOC(=O)C1(CC2CC2)CCN(Cc2c[nH]nc2-c2cccc(F)c2)CC1,,0.792
COCCOC1CCN(Cc2nc(-c3cccc(Cl)c3)no2)CC1,,0.968
